Experiment [1] deals with T1, Clp1aa.1-371, GAL4 DNA binding domain fusion (S. pombe) (UniProt Q9P7H1).
T1 sequence: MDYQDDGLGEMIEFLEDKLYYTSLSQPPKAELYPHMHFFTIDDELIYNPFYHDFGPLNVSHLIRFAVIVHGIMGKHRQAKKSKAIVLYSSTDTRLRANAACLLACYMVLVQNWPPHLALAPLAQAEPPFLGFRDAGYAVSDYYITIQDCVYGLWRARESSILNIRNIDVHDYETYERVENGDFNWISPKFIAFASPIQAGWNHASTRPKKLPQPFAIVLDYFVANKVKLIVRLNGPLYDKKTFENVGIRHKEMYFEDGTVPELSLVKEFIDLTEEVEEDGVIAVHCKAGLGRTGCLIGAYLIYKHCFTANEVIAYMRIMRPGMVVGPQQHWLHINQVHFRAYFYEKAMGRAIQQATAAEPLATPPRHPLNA
In words: two-hybrid; bait Clp1p fused to GAL4 DNA binding domain, prey ESCRT proteins fused to GAL4 transcription activation domain; budding yeast with GAL4-galactosidase readout; X-gal overlay; interaction read from the lack of transcriptional readout of the auto-activating bait Clp1aa.1-371.

Experiment [2] concerns the target T2, Plo1p (wild-type), LexA DNA binding domain fusion (S. pombe) (UniProt P50528).
T2 sequence: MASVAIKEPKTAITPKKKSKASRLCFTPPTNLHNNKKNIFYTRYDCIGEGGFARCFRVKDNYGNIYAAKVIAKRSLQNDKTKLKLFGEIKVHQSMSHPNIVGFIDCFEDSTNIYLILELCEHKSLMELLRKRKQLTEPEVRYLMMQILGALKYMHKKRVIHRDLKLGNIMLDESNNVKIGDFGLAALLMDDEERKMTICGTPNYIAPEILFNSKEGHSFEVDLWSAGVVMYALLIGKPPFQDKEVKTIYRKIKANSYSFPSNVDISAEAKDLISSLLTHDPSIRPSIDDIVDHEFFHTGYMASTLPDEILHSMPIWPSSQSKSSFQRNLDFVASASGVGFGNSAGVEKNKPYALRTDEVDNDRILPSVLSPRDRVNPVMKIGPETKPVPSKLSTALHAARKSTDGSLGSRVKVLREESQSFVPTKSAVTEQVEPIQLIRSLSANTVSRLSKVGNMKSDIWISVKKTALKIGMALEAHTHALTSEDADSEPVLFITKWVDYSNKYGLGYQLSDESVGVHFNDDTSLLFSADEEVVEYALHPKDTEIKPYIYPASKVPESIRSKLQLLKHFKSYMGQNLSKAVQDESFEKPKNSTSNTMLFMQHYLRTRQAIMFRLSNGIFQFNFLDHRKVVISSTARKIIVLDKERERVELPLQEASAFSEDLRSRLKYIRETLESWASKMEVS
Briefly: two-hybrid; bait fused to LexA DNA binding domain (Plo1p or Ark1p), prey ESCRT proteins fused to GAL4 transcription activation domain; budding yeast with LEXA-galactosidase readout; three days on selective medium, X-gal overlay; qualitative.

The target in experiment [3] is T3, Ark1p (wild-type), LexA DNA binding domain fusion (S. pombe) (UniProt O59790).
T3 sequence: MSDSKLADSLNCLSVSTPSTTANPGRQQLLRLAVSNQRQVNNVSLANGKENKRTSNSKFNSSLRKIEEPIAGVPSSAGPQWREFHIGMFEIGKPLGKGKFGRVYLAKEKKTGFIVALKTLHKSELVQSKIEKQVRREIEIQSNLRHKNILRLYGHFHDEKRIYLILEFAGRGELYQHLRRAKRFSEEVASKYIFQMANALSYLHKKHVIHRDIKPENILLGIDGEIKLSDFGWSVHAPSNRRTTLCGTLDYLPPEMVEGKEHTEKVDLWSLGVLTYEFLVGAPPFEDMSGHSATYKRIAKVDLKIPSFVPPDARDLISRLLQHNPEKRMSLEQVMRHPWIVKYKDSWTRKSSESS
The description is as above.

The target of experiment [4] is Ark1.K147R (kinase-dead Ark1p), LexA DNA binding domain fusion (S. pombe) (UniProt O59790). Described as above.

Among the data in paper PMC4214795 are binding values, retold here.

No constants are given. Whether binding was seen depends on the method and setting. For some of these results: Binding calls can cover weak binding; strength is not graded here. Sequences can lack the tags named with a protein.

On to “Vps32p (ESCRT-III), GAL4 transcription activation domain fusion (S. pombe)”, for which the binding entry in experiment [1] was “no binding”; in experiment [2], “binds”; in experiment [3], “no binding”.

B1: Vps20p (ESCRT-III), GAL4 transcription activation domain fusion (protein, UniProt O94318 1-226)
chain: MGVNSSKINDKDRSILSIKEQRDKLLRYSKRLEKIEQLEIDIARKCLRDSDKRGALRALKAKKLYSGLITQTYGQLGNIEQLLSTIEFTLIQKDVMFGLQEGTNLIRQLQADMPLERVGRICNDRDEAMSYVDEVNDMLQGRMSRDQEDEIQEELDSLIREQEDEKVKDLEKPGFTPSTGVDVLPSVPLKNAIPSLDESFPKAASVSNTSSAVVIDEELRKDPVLG
As to B1, the binding entry in experiment [4] is “binds”.
